Measurements: publication PMC11266601
Results are given in words; binding and its absence hold for the method and conditions named. Binding seen in cells or lysates may run through a third protein. Some results given as binding are weak or reduced against the parent protein; the word gives no strength.

By UniProt entry, the sequences of proteins in these tests, tags left out.
UniProt O70145: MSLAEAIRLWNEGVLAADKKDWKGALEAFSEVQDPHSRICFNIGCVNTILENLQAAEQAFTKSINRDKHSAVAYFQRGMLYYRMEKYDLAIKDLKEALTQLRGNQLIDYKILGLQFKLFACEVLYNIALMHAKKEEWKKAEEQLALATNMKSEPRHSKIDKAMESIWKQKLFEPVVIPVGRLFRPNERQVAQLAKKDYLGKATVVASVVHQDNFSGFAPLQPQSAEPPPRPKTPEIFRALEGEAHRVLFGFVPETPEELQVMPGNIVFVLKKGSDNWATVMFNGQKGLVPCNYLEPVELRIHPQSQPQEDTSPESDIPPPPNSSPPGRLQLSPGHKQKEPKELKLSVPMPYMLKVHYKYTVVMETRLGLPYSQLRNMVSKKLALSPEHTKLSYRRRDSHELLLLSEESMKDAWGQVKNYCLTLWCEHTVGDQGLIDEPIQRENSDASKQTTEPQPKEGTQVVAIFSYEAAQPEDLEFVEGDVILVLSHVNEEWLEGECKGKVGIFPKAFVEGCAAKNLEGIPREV

T1: NOX2/gp91^phox, endogenous in murine bone marrow-derived macrophages (mouse (endogenous in BMDMs)) (UniProt Q61093)
T1 sequence: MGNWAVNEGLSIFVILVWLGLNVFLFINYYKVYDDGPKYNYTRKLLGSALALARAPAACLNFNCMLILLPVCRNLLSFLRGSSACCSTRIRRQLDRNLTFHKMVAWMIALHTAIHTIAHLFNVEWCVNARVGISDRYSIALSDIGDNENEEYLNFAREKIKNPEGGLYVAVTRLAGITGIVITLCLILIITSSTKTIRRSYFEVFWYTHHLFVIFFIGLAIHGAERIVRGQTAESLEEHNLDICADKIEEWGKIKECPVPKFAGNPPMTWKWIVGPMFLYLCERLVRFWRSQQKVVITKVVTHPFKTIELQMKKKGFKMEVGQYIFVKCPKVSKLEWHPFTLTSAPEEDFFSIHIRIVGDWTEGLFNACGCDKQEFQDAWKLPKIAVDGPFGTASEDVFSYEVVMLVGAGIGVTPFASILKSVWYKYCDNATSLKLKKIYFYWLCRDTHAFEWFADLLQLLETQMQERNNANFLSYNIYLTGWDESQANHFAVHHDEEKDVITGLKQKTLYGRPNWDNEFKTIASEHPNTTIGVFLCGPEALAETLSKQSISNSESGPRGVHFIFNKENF


Target: T1, NOX2/gp91^phox, endogenous in murine bone marrow-derived macrophages (mouse (endogenous in BMDMs))
Assay: co-IP; lysates (RIPA) of BMDMs infected for 2 h with V. vulnificus strains (EF, EF::RDTND-RID, EF::RDTND-RIDC/A, EF::RDTNDE/Q-RIDC/A, EF::RDTND4mt-RIDC/A), anti-gp91^phox antibody and protein A/G agarose, immunoblot

| Molecule | binding |
| --- | --- |
| p67^phox, endogenous in murine bone marrow-derived macrophages (from UniProt O70145 1-525) | binds |
| p47^phox, endogenous in murine bone marrow-derived macrophages (protein, UniProt Q09014 1-390) MGDTFIRHIALLGFEKRFIPSQHYVYMFLVKWQDLSEKVVYRKFTEIYEFHKMLKEMFPIEAGEIHTENRVIPHLPAPRWFDGQRAAESRQGTLTEYFNGLMGLPVKISRCPHLLDFFKVRPDDLKLPTDSQAKKPETYLVPKDGKNNVADITGPIILQTYRAIADYEKSSGTEMTVATGDVVDVVEKSESGWWFCQMKTKRGWVPASYLEPLDSPDEAEDPDPNYAGEPYVTIKAYAAVEEDEMSLSEGEAIEVIHKLLDGWWVVRKGDITGYFPSMYLQKAGEEITQAQRQIRGRGAPPRRSTIRNAQSIHQRSRKRLSQDTYRRNSVRFLQQRRRPGRPGPLSTDGTKDNPSTPRVKPQPAVPPRPSSDLILHRCTESTKRKLTSAV | binds |
